In WO2013015821A1:
Results are given in words; binding and its absence hold for the method and conditions named. Binding calls can cover weak binding; strength is not graded here.

Legend:
[1] = target: TCblR 32-94,142-233-mycHis (human); assay: TC-[57Co]Cbl binding, Scatchard analysis
[2] = target: TCblR 32-94,142-233-mycHis (human); assay: TC-[57Co]Cbl binding with unlabeled TC-Cbl, WGA-agarose separation, Scatchard analysis

B1: transcobalamin saturated with cobalamin (TC-Cbl) (ligand, human, UniProt P20062 19-427, looked up)
chain: EMCEIPEMDSHLVEKLGQHLLPWMDRLSLEHLNPSIYVGLRLSSLQAGTKEDLYLHSLKLGYQQCLLGSAFSEDDGDCQGKPSMGQLALYLLALRANCEFVRGHKGDRLVSQLKWFLEDEKRAIGHDHKGHPHTSYYQYGLGILALCLHQKRVHDSVVDKLLYAVEPFHQGHHSVDTAAMAGLAFTCLKRSNFNPGRRQRITMAIRTVREEILKAQTPEGHFGNVYSTPLALQFLMTSPMRGAELGTACLKARVALLASLQDGAFQNALMISQLLPVLNHKTYIDLIFPDCLAPRVMLEPAAETIPQTQEIISVTLQVLSLLPPYRQSISVLAGSTVEDVLKKAHELGGFTYETQASLSGPYLTSVMGKAAGEREFWQLLRDPNTPLLQGIADYRPKDGETIELRLVSW
modifications: cobalamin bound non-covalently ([57Co]Cbl in the radio assays)
In the case of B1, the binding [1] is reported as “binds” and the binding [2] is reported as “binds”.
